The assay is described as follows: qHTS Assay for Lipid Storage Modulators in Drosophila S3 Cells.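 As to cell number change: cells counted by Cell Tracker Red CMTPX staining in the red channel.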 As to conditions: BODIPY lipid droplet fluorescence, 18-24 h; for cell number change: measured here: cell count max response, cells fed with added oleic acid. In short, it runs like this: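 Laser-scanning cytometry quantifies lipid droplet accumulation (500–530 nm total intensity; droplet/cell object ratio) in oleic acid-fed (400 uM added) Drosophila S3 cells treated with a concentration series. 20 uM Triacsin C defined 100% inhibition.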
In general terms: In qHTS, concentration-response curves come from the screen itself.

[1] abbreviates: measured here: cell number channel AC50, cells fed with added oleic acid.
Where [2] appears, read: measured here: lipid fluorescence (Fed channel) AC50, cells fed with added oleic acid.

Structures are written as SMILES. This is one part of the list. These are further read-outs of the screen, such as a control signal, another cell line or another target. No call is given for them. The list favours compounds with an active or inconclusive main result. Potencies come from curve fits of mixed quality, noted in brackets.

In the case of `Cc1ccc(S(=O)(=O)N[C@H](C(=O)N2CCC(C(=O)NCC(=O)O)CC2)C(C)C)cc1`, the cell number change was -33.2%. Under setting [1], the AC50 (usually the concentration at which the activity in the assay is half-maximal) is 4.61 µM [falling, full curve, poor fit].

Turning to `COc1cc(OC)cc(-c2c(C#Cc3ccsc3)c3cc(Br)ccc3n2C)c1`, the cell number change was found to be 12.3%. In addition, the AC50 under setting [2] is 6.51 µM [falling, single point].

`Cc1ccc(/C(N)=N/OC(=O)c2ccc3ccccc3c2)cc1`: the AC50 under setting [2] was 1.3 µM [falling, partial curve, poor fit].

With `CCOC(=O)C1C(=O)OC(C)(C)C1C(CC)C(=O)c1ccccc1` (centres undefined), the cell number change is -18.5%. Besides, under setting [1], the AC50 was 0.00461 µM [falling, full curve, poor fit]. The AC50 under setting [2] is 0.00461 µM [falling, full curve, poor fit].

Turning to `Cc1cccc([N+](=O)[O-])c1NC(=O)CSc1nnc2ccccn12`, the cell number change was -31.2%. The AC50 under setting [1] is 32.6 µM [falling, single point]. The AC50 under setting [2] was 29.1 µM [falling, single point].

Take `COc1cccc(NC(=O)COC(=O)Cn2c(C)csc2=O)c1`: the cell number change is -12.2%. Under setting [2], the AC50 was 14.6 µM [falling, partial curve].

`Cn1c(CCN2CCN(c3ccccn3)CC2)nc2cc(NC(=O)COc3ccccc3)ccc21`: the cell number change is 9.92%. The concentration at half-maximal activity (AC50) under setting [1] was 6.51 µM [rising, single point]. In addition, the AC50 under setting [2] is 6.51 µM [rising, single point].

As to `COc1cccc(OCc2cc(C(=O)N(C)Cc3nc(C)cs3)no2)c1`, the cell number change is 6.07%.

For the compound `CC(=O)c1ccc(OCC(=O)N2CCN(S(=O)(=O)c3ccc(Br)s3)CC2)cc1`, the cell number change was -6.52%.

Turning to `CCOc1ccc(S(=O)(=O)N(C)C2CCCCC2)cc1`, the half-maximal activity concentration (AC50) under setting [2] was 7.31 µM [falling, single point].

Regarding `O=C(O)c1ccc(OCc2occc2C(=O)O)cc1`, the cell number change was found to be 9.17%. Moreover, the AC50 under setting [1] is 0.103 µM [falling, full curve]. In addition, the AC50 under setting [2] is 0.116 µM [falling, full curve].

For `C=CCn1c(=O)c2ccccc2n2c(SCC(=O)Nc3sc(C(=O)N(CC)CC)c(C)c3C(=O)OCC)nnc12`, the AC50 by setting is: under setting [1], 2.59 µM [rising, partial curve]; under setting [2], 0.00461 µM [rising, full curve, poor fit].

In the case of `Cc1csc(N(C(=O)c2ccc(S(=O)(=O)N(C)C)cc2)c2ccccc2)n1`, the AC50 is, setting by setting: under setting [1], 1.3 µM [rising, full curve]; under setting [2], 1.03 µM [rising, partial curve].

As to `COc1ccc(S(=O)(=O)N(Cc2cc3cc(C)ccc3[nH]c2=O)CC2CCCO2)cc1` (centres undefined), the cell number change amounted to 4.1%.

For `N/C(=N\OC(=O)COc1ccc(Cl)cc1Br)c1ccncc1`, the cell number change was -16.6%. The AC50 under setting [2] is 0.651 µM [falling, partial curve, poor fit].

For the compound `NC(CSCc1cccc(Br)c1)C(=O)O` (centres undefined), the cell number change was determined as 69.3%. For the same compound, under setting [1], the AC50 is 29.1 µM [rising, single point].

`CCOc1cc(C(=O)Nc2ncccn2)cc(OCC)c1OCC`: the cell number change is -3.98%. Moreover, the AC50 under setting [2] is 0.116 µM [falling, full curve, poor fit].

`Cc1csc(NC(=O)c2ccc(C)c(S(=O)(=O)N3CCOCC3)c2)n1`: under setting [2], the AC50 was 29.1 µM [falling, single point].

`CCOc1ccc(S(=O)(=O)Nc2ccn(C)n2)cc1`: the cell number change was found to be 0.518%. Moreover, the half-maximal activity concentration (AC50) under setting [2] was 1.64 µM [rising, partial curve].

For the compound `CC(C)c1ccccc1NC(=O)COC(=O)CCN1C(=O)/C(=C\C=C\c2ccccc2)SC1=S`, the cell number change came out at 13.9%.

Consider `CC(=O)c1c(C)nc2ccc(Cl)cn12`, for which the AC50 is, setting by setting: under setting [1], 2.06 µM [rising, partial curve]; under setting [2], 0.517 µM [rising, single point].

Turning to `COc1ccc(S(=O)(=O)NCCc2cc3ccc(C)c(C)c3[nH]c2=O)cc1`, the cell number change is -5.26%.

On to `COc1ccccc1C(=O)NC(CCSC)C(=O)NC1CCCCCC1` (centres undefined), for which the cell number change was determined as 51.9%. Besides, the AC50 under setting [1] was 25.9 µM [rising, single point].

Take `O=C(COc1ccc2c3c(c(=O)oc2c1)CCC3)NCc1ccccn1`: the cell number change is -19.5%. In addition, the half-maximal activity concentration (AC50) under setting [2] was 29.1 µM [falling, single point].

In the case of `COc1ccc(-c2cc(C(=O)Nc3c(C)nn(Cc4ccc(Cl)cc4)c3C)no2)cc1`, the cell number change was -62.7%. Further, under setting [1], the AC50 was 23.1 µM [falling, partial curve, poor fit]. The AC50 under setting [2] is 23.1 µM [falling, partial curve].

Take `CCOC(=O)c1ccc(-n2c(C)nc3c(cnn3-c3ccccc3Cl)c2=O)cc1`: the cell number change is -37.5%. Under setting [1], the AC50 is 13 µM [falling, partial curve]. The AC50 under setting [2] is 16.4 µM [falling, single point].

Turning to `Cc1ccccc1NC(=O)c1nc(S(C)(=O)=O)ncc1Cl`, the cell number change is -37.8%. The AC50 under setting [1] is 4.11 µM [falling, full curve, poor fit]. The AC50 under setting [2] is 0.731 µM [falling, full curve].

For the compound `O=c1nc(C(F)(F)F)nc2ccccn12`, the cell number change was found to be 128%.

In the case of `CC(c1nccs1)N(C)C(=O)CCc1nnc(CCc2ccccc2)o1` (centres undefined), the cell number change is 4.89%. Also, under setting [2], the half-maximal activity concentration (AC50) is 0.164 µM [falling, full curve, poor fit].

In the case of `CCCOc1ccc(CN(C(=O)c2cccc(OC)c2)C2CCS(=O)(=O)C2)cc1` (centres undefined), the AC50 under setting [2] is 29.1 µM [falling, single point].

Consider `CCOC(=O)N1CCN(CCC(=O)Nc2ccc(Br)cc2)CC1`, for which the cell number change turned out to be 43.2%. For the same compound, the AC50 under setting [1] was 9.2 µM [rising, partial curve]. Moreover, the concentration at half-maximal activity (AC50) under setting [2] is 16.4 µM [rising, partial curve].

Take `Fc1ccc(NC(=S)Nc2ccc(Br)cc2)cc1`: the cell number change is -33.9%. Also, the AC50 under setting [1] is 0.0206 µM [falling, full curve, poor fit]. In addition, the AC50 under setting [2] is 29.1 µM [falling, single point].

Regarding `COc1ccc(NC(=O)C2CCCN(S(=O)(=O)c3cccc4nonc34)C2)cc1` (centres undefined), the cell number change was found to be 30.4%. Further, the half-maximal activity concentration (AC50) under setting [1] was 2.31 µM [rising, full curve, poor fit]. Besides, the AC50 under setting [2] is 10.3 µM [rising, partial curve].

As to `COc1ccc(OC)c(S(=O)(=O)n2nc(-c3ccccc3)cc2N)c1`, the half-maximal activity concentration (AC50) under setting [1] was 0.461 µM [rising, full curve].

With `Cc1ccc(NC(=O)CCCNC(=O)c2ccc(Cl)cc2)nc1`, the cell number change was determined as 0.983%. The AC50 under setting [2] is 0.58 µM [rising, single point].

As to `Cc1ccc(NC2SC(=O)N(Cc3cccc(C(=O)O)c3)C2=O)c(C)c1` (centres undefined), the cell number change amounted to 11.3%.

Regarding `O=C(c1ccccc1)c1ccc(OCC(O)CNCc2ccc(Cl)cc2)cc1` (centres undefined), the cell number change was -71.7%. In addition, under setting [1], the half-maximal activity concentration (AC50) is 29.1 µM [falling, single point]. Moreover, the AC50 under setting [2] was 29.1 µM [falling, single point].

Consider `CCc1nc(NC2CCCCC2)c(C#N)c2c1COC(C)(C)C2`, for which the cell number change was -27.5%. Besides, under setting [2], the concentration at half-maximal activity (AC50) was 32.6 µM [falling, single point].

In the case of `Cc1cccc(/C=C2\CCC(C3CCCC3)C2=O)c1` (centres undefined), the cell number change was found to be 1.48%. Besides, the AC50 under setting [2] was 16.4 µM [rising, partial curve, poor fit].

Turning to `NC(=S)N/N=C/c1ccc(-c2cccc([N+](=O)[O-])c2)o1`, the cell number change is -9.96%.

Turning to `Cc1ccc(S(=O)(=O)NCCC(=O)Nc2ccncc2)cc1C`, the cell number change came out at 41%. Further, under setting [1], the AC50 was 5.8 µM [rising, full curve, poor fit].

For the compound `COC(=O)c1cc(NC(=O)Nc2ccccc2)ccc1Cl`, the cell number change came out at 8.47%.

As to `COc1cccc(NS(=O)(=O)c2ccc3c(c2)C2C=CCC2C(c2ccc(C(=O)O)cc2)N3)c1` (centres undefined), the cell number change was -1.53%. In addition, the AC50 under setting [2] was 0.0517 µM [rising, full curve, poor fit].

`CCN(CC)S(=O)(=O)c1ccc2oc(C(=O)NCc3ccc(C)cc3)c(C)c2c1`: the cell number change was -1.84%. In addition, the AC50 under setting [1] was 3.66 µM [rising, single point]. The AC50 under setting [2] was 6.51 µM [rising, single point].

In the case of `Cc1ccc(-n2nnnc2SCC(=O)NC(=O)Nc2ccc3c(c2)OCCO3)cc1`, the cell number change is -1.33%. Under setting [1], the AC50 was 0.411 µM [falling, single point].

As to `CCC1CCCCN1CCNC(=O)c1[nH]c(C)c(C(C)=O)c1C` (centres undefined), the cell number change is -24.4%. Also, under setting [2], the concentration at half-maximal activity (AC50) is 10.3 µM [falling, partial curve, poor fit].

For `Cc1cc(C(=O)OCC(=O)NCc2ccc(F)cc2)c2ccccc2n1`, the cell number change is -47.6%. Moreover, the AC50 under setting [1] was 23.1 µM [falling, partial curve]. Under setting [2], the AC50 was 2.59 µM [falling, full curve].

In the case of `c1ccc(OCCCn2nnc(-c3cccnc3)n2)cc1`, the AC50 under setting [1] was 2.91 µM [rising, partial curve].

For `COC(=O)CSc1nc(-c2ccccc2)cc(-c2ccco2)c1C#N`, the cell number change was -28.5%. For the same compound, the AC50 under setting [2] is 29.1 µM [rising, single point].

For the compound `COc1cc(NS(C)(=O)=O)c(OC)cc1NC(=O)c1ccccc1`, the cell number change is 3.98%.

Take `CCOc1ccc(C(=O)NCC(=O)NCCCSc2ccccc2)cc1OCC`: the cell number change was 28.6%. For the same compound, the AC50 under setting [2] is 0.259 µM [rising, full curve, poor fit].

Take `Cc1ccccc1OCc1nnc(SCC(=O)O)n1-c1ccccc1`: the cell number change is 2.55%. Moreover, under setting [1], the AC50 is 2.31 µM [rising, partial curve, poor fit].

As for `Cc1cc(C)c(OCC(=O)Nc2nc3ccccc3[nH]2)c(C)c1`, the cell number change is 48.2%.

Turning to `COc1cc(C(=O)NC(C)Cc2cccs2)cc(OC)c1OC` (centres undefined), the cell number change amounted to 27.1%.

For the compound `Nc1ccc(-n2cnc3cc([N+](=O)[O-])ccc32)cc1`, the cell number change was found to be 33.7%. For the same compound, the AC50 under setting [1] is 1.46 µM [rising, full curve, poor fit]. For the same compound, the AC50 under setting [2] is 1.03 µM [rising, single point].

As to `CCN(CC)C(=O)c1nc[nH]c1C(=O)N1CCN(C(=O)OC(C)(C)C)CC1`, the cell number change turned out to be 13%. Besides, the AC50 under setting [1] was 1.3 µM [falling, partial curve]. For the same compound, the AC50 under setting [2] was 1.46 µM [falling, partial curve].

As for `Cc1nn(-c2ccccc2)c(C)c1C(=O)OCC(=O)c1c(N)n(CC(C)C)c(=O)n(C)c1=O`, the cell number change is -14.1%. The AC50 under setting [2] is 0.731 µM [rising, full curve].

Consider `Cc1c(C(=O)N2CCN(CC(=O)Nc3ccccc3Cl)CC2)oc2ccc(Br)cc12`, for which the cell number change was -47.1%. Besides, the AC50 under setting [1] was 29.1 µM [falling, single point]. Moreover, the AC50 under setting [2] is 29.1 µM [falling, single point].

For the origin of these results see PubChem BioAssay AID2685 (National Center for Advancing Translational Sciences (NCATS), 2010).
